Measurements reported in PubChem BioAssay AID652259 (Drosophila RNAi Screening Center, 2013)

Assay: 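Identify new Wingless signalling regulators in fly cells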 (primary screen)
Cell system: Drosophila clone 8 imaginal disc epithelial cells
Knock-down reagent: long dsRNA against Drosophila genes
Treatment: pathway stimulated by co-transfected Wingless expression plasmid
Read-out: 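Firefly luciferase from a tcf-site Wingless reporter, measured alongside co-transfected Renilla luciferase that tracks transfection; pathway stimulated by a Wingless plasmid; the firefly-to-Renilla ratio is not deposited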
Direction: firefly reporter light: higher = more Wg reporter light, before normalisation; Renilla control light: higher = more transfected or surviving cells
Active means: 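Strong candidates differ from their plate mean by at least two out of four per-plate statistical tests; weak candidates meet just one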
Meaning of the calls: active = candidate regulator (raises or lowers reporter); inactive = not a candidate
In all, the deposit lists about 22,000 reagents; shown is an unselected part of those with a known target gene and a result. In the full data, 233 (1.1%) were called active. 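Light values are raw, unnormalised plate reads; the ratio scores behind the reporter calls were not deposited.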 A number with no mark means an inactive call. The record does not give: the amount of reagent, the time to read-out, the dose of the treatment.

target	dsRNA	reporter change call, replicate 1	firefly reporter light, replicate 1	firefly reporter light, replicate 2	Renilla control light, replicate 1	Renilla control light, replicate 2
lectin-37Db	DRSC03279		3266	6722	960	2481
eEF1alpha2	DRSC14079		3177		1537	
eEF1alpha2	DRSC16658		13520		10592	
CG9386	DRSC16485		11063		1785	
CG15545	DRSC15083		10528		2704	
CG7255	DRSC10790		2551		1426	
Acbp3	DRSC11022		1930	9259	1553	3883
Bre1	DRSC09742		14369		2610	
gukh	DRSC14768		14130		3394	
gukh	DRSC15806		14804		4244	
gukh	DRSC15944		1811	6077	601	1916
nAChRalpha2	DRSC17009		1828	5410	1003	2048
veg (retired record)	DRSC07714		6992		2002	
Spn27A	DRSC03608		1940	7410	852	2518
tacc	DRSC12019		3402		1335	
tacc	DRSC12388		8417	8.07e5	1851	3.64e5
CheB98a	DRSC14882		9010		3152	
CG17486	DRSC07752		10992		4052	
CG2017	DRSC12293		6288		2141	
PPP1R15	DRSC04422	Wg reporter activity raised	9948		1699	
her	DRSC03543		8376		1449	
CCHa1-R	DRSC06456		6434		2298	
CCHa1-R	DRSC06715		8588		2420	
mwh	DRSC07949		1888		872	
mwh	DRSC08382		3987		2210	
Oseg1	DRSC10776		4432		2214	
Urod	DRSC07569		3628	7060	997	3633
CG42613	DRSC13332		3580		966	
CG42613	DRSC14769		10925		2544	
CG42613	DRSC15802		3156	10706	1120	2058
CG42613	DRSC22613		6.66e5	6.37e5	2.19e5	1.45e5
CG6435	DRSC06987		4055		1904	
CG34337	DRSC18435		26699		11232	
CG31347	DRSC21582		5.09e5	5.23e5	2.49e5	2.25e5
CG14397	DRSC02381		3265	9045	784	2660
CG17806	DRSC15276		3480	7640	1552	2075
lncRNA:iab4	DRSC22331		6.97e5	7.53e5	2.86e5	2.92e5
CG5612	DRSC15844		8192		3324	
CG33460	DRSC05570		21069		14196	
CG14269	DRSC17912		12256		12112	
CG12499	DRSC14521		39516		8489	
Nacalpha	DRSC07477		11056		2937	
Trpm	DRSC06629		9420		1625	
Trpm	DRSC21566		5.10e5	5.11e5	2.43e5	1.76e5
Dlip2	DRSC12346		20593		6801	
SmydA-4	DRSC19390		26593		12258	
SmydA-4	DRSC21866		6.29e5	6.62e5	2.48e5	2.52e5
CG5455	DRSC15805		2592	3817	1316	1684
CG13458	DRSC10005		5289		1946	

5 neighbouring entries already listed, for reference:
target	dsRNA	reporter change call, replicate 1	firefly reporter light, replicate 1	firefly reporter light, replicate 2	Renilla control light, replicate 1	Renilla control light, replicate 2
PPP1R15	DRSC04422	Wg reporter activity raised	9948		1699	
her	DRSC03543		8376		1449	
CCHa1-R	DRSC06456		6434		2298	
CCHa1-R	DRSC06715		8588		2420	
mwh	DRSC07949		1888		872	
